From PMC8505768

The chains behind the UniProt entries cited, without tags or fusion partners.
UniProt Q9UDY2: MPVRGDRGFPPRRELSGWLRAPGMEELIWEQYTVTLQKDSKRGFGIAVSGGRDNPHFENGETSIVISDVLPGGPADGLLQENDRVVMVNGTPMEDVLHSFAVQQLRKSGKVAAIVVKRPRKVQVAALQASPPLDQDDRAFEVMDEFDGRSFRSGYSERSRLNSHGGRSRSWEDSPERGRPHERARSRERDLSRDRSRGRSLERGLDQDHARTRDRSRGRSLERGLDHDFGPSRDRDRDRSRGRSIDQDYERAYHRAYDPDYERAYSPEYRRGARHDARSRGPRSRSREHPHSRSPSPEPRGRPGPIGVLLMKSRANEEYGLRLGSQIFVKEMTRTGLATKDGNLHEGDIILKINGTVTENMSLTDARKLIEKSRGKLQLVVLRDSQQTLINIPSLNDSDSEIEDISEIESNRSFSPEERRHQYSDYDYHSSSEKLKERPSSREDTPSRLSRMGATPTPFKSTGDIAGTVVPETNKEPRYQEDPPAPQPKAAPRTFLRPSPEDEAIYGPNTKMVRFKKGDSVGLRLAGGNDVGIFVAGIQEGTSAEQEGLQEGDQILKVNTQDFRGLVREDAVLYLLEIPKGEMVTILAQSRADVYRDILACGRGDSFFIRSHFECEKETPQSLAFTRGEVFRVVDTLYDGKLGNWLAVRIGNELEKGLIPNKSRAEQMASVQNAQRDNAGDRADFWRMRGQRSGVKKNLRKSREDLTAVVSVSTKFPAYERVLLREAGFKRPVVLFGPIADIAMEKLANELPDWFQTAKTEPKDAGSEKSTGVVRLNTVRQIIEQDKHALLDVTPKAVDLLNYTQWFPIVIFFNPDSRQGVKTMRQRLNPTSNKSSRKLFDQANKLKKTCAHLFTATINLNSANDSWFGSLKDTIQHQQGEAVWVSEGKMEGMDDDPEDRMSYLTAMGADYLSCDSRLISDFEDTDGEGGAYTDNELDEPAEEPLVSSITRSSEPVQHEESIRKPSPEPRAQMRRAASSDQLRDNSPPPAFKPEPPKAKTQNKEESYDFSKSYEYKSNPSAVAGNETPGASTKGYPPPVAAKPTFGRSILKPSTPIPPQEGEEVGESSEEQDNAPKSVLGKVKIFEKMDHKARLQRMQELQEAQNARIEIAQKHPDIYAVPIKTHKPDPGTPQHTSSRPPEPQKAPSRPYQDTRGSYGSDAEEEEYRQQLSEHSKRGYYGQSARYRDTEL
UniProt P08238: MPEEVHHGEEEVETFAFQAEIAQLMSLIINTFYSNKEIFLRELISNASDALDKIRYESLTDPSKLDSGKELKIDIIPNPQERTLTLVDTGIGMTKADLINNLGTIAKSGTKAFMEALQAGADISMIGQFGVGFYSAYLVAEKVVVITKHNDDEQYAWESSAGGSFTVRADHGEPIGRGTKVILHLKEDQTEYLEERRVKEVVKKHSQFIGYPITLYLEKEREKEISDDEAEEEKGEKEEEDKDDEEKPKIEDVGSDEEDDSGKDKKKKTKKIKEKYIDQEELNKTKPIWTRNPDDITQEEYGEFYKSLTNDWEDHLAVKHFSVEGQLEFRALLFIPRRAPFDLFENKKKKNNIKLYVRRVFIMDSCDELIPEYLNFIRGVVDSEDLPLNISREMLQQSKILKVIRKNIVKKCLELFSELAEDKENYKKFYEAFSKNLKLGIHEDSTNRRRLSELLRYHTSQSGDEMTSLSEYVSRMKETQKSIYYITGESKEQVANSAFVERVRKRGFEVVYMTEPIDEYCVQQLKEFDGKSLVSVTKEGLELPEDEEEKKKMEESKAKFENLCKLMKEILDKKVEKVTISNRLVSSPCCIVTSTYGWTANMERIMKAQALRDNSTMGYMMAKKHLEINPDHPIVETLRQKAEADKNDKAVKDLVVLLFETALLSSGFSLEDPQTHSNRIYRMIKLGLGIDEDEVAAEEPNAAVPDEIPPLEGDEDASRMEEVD

T1: S100 Calcium Binding Protein A16 (lentivirus-S100A16) (human) (UniProt Q96FQ6)
T1 sequence: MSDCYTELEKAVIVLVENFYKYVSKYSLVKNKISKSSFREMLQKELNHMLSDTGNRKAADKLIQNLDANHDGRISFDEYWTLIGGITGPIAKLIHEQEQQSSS


Legend:
[1] = biological target: T1, S100 Calcium Binding Protein A16 (lentivirus-S100A16) (human); experiment: affinity purification with mass spectrometry; precipitated protein of SGC-7901 cells infected with lenti-S100A16 or lenti-scramble (empty vector); LC-MS/MS on LTQ-Orbitrap, MaxQuant
[2] = biological target: T1, S100 Calcium Binding Protein A16 (lentivirus-S100A16) (human); experiment: as above; remark: listed apart in the source

binding [1]	binding [2]	Molecule
binds	–	Zonula Occludens-2 (from UniProt Q9UDY2 1-1190)
binds	–	HSP90AB1 (from UniProt P08238 1-724)
–	binds	JUP (protein, UniProt P14923 1-745) MEVMNLMEQPIKVTEWQQTYTYDSGIHSGANTCVPSVSSKGIMEEDEACGRQYTLKKTTTYTQGVPPSQGDLEYQMSTTARAKRVREAMCPGVSGEDSSLLLATQVEGQATNLQRLAEPSQLLKSAIVHLINYQDDAELATRALPELTKLLNDEDPVVVTKAAMIVNQLSKKEASRRALMGSPQLVAAVVRTMQNTSDLDTARCTTSILHNLSHHREGLLAIFKSGGIPALVRMLSSPVESVLFYAITTLHNLLLYQEGAKMAVRLADGLQKMVPLLNKNNPKFLAITTDCLQLLAYGNQESKLIILANGGPQALVQIMRNYSYEKLLWTTSRVLKVLSVCPSNKPAIVEAGGMQALGKHLTSNSPRLVQNCLWTLRNLSDVATKQEGLESVLKILVNQLSVDDVNVLTCATGTLSNLTCNNSKNKTLVTQNSGVEALIHAILRAGDKDDITEPAVCALRHLTSRHPEAEMAQNSVRLNYGIPAIVKLLNQPNQWPLVKATIGLIRNLALCPANHAPLQEAAVIPRLVQLLVKAHQDAQRHVAAGTQQPYTDGVRMEEIVEGCTGALHILARDPMNRMEIFRLNTIPLFVQLLYSSVENIQRVAAGVLCELAQDKEAADAIDAEGASAPLMELLHSRNEGTATYAAAVLFRISEDKNPDYRKRVSVELTNSLFKHDPAAWEAAQSMIPINEPYGDDMDATYRPMYSSDVPLDPLEMHMDMDGDYPIDTYSDGLRPPYPTADHMLA

Where two headings read alike, the source gives them in different places. No constants are given. Whether binding was seen depends on the method and setting. In cells and extracts the contact can be indirect. These calls come from enrichment with a bait or labelling near it, and not all partners need be listed.
